Test results from the supplement of paper PMC10849652.
Some of the results follow.

Chains of the proteins cited; added tags and fusions are not shown. Lines headed by an entry give the natural chain unless they say otherwise; changes in a name come on top.
UniProt Q6UN15: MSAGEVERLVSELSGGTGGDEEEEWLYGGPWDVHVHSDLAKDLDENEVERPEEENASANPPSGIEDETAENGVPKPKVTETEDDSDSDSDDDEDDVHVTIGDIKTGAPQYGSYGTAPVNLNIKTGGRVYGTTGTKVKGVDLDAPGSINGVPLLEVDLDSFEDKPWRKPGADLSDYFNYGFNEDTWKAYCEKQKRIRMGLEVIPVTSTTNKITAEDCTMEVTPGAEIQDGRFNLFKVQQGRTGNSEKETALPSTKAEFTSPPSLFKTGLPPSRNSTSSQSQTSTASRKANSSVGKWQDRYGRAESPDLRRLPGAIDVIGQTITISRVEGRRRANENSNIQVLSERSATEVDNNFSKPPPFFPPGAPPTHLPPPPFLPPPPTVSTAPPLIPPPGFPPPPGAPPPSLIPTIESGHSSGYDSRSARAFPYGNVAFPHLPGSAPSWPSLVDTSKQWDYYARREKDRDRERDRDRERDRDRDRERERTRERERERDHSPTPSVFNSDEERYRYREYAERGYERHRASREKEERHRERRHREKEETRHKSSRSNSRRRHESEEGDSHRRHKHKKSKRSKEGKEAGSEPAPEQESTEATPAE
UniProt Q5T1M5: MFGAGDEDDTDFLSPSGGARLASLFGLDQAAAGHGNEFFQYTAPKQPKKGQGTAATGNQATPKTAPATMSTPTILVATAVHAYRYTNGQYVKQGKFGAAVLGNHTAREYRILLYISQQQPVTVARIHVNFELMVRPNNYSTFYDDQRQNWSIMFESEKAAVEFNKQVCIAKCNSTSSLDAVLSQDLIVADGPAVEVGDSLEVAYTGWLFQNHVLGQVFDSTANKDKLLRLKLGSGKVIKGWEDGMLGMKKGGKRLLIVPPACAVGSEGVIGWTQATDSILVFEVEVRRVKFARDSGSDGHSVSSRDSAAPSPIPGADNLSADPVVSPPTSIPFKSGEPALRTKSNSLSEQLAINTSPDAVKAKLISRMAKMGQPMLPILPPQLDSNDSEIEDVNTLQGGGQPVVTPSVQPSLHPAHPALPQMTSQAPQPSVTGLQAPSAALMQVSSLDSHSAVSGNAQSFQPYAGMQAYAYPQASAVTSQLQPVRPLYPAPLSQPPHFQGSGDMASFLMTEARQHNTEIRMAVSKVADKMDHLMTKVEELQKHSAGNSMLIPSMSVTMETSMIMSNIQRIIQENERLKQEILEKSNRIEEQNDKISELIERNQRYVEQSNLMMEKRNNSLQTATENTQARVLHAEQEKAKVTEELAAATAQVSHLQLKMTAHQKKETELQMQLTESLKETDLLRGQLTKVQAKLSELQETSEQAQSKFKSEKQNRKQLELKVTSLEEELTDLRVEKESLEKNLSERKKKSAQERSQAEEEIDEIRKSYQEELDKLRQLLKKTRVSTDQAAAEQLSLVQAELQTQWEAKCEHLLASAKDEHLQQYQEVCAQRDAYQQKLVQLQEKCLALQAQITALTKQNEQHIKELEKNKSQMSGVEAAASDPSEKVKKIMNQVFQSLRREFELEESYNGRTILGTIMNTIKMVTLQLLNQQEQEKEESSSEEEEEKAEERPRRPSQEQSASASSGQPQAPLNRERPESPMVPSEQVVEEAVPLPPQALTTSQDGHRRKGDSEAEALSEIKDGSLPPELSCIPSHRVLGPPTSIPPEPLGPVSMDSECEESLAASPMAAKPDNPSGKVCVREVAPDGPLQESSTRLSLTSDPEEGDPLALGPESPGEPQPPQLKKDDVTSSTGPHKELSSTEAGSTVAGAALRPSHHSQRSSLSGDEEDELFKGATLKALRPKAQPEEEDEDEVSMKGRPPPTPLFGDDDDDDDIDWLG
UniProt Q6PIW4: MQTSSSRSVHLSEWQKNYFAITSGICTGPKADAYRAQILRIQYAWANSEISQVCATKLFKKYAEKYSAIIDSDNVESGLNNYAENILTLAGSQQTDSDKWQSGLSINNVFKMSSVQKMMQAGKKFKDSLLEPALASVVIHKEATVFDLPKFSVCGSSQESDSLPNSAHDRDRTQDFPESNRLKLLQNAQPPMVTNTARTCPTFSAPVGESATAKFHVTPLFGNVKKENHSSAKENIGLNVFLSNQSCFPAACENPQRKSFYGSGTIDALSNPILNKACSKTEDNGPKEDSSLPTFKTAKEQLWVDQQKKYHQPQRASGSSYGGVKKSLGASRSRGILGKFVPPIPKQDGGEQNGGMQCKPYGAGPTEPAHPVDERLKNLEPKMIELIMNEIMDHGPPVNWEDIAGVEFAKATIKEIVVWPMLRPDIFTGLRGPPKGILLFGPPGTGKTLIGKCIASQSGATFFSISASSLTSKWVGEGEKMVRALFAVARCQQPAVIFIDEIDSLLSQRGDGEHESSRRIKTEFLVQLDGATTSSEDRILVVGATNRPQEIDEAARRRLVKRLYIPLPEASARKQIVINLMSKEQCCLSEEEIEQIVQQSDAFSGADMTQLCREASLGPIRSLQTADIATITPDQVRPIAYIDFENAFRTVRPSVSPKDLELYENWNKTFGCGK
UniProt Q9Y680: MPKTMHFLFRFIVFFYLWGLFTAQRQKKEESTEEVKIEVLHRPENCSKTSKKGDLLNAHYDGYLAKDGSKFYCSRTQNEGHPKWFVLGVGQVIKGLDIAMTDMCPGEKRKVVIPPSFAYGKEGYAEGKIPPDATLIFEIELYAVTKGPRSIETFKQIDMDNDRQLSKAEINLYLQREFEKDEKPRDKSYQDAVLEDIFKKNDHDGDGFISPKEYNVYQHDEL
UniProt P49327, whole entry, looked up: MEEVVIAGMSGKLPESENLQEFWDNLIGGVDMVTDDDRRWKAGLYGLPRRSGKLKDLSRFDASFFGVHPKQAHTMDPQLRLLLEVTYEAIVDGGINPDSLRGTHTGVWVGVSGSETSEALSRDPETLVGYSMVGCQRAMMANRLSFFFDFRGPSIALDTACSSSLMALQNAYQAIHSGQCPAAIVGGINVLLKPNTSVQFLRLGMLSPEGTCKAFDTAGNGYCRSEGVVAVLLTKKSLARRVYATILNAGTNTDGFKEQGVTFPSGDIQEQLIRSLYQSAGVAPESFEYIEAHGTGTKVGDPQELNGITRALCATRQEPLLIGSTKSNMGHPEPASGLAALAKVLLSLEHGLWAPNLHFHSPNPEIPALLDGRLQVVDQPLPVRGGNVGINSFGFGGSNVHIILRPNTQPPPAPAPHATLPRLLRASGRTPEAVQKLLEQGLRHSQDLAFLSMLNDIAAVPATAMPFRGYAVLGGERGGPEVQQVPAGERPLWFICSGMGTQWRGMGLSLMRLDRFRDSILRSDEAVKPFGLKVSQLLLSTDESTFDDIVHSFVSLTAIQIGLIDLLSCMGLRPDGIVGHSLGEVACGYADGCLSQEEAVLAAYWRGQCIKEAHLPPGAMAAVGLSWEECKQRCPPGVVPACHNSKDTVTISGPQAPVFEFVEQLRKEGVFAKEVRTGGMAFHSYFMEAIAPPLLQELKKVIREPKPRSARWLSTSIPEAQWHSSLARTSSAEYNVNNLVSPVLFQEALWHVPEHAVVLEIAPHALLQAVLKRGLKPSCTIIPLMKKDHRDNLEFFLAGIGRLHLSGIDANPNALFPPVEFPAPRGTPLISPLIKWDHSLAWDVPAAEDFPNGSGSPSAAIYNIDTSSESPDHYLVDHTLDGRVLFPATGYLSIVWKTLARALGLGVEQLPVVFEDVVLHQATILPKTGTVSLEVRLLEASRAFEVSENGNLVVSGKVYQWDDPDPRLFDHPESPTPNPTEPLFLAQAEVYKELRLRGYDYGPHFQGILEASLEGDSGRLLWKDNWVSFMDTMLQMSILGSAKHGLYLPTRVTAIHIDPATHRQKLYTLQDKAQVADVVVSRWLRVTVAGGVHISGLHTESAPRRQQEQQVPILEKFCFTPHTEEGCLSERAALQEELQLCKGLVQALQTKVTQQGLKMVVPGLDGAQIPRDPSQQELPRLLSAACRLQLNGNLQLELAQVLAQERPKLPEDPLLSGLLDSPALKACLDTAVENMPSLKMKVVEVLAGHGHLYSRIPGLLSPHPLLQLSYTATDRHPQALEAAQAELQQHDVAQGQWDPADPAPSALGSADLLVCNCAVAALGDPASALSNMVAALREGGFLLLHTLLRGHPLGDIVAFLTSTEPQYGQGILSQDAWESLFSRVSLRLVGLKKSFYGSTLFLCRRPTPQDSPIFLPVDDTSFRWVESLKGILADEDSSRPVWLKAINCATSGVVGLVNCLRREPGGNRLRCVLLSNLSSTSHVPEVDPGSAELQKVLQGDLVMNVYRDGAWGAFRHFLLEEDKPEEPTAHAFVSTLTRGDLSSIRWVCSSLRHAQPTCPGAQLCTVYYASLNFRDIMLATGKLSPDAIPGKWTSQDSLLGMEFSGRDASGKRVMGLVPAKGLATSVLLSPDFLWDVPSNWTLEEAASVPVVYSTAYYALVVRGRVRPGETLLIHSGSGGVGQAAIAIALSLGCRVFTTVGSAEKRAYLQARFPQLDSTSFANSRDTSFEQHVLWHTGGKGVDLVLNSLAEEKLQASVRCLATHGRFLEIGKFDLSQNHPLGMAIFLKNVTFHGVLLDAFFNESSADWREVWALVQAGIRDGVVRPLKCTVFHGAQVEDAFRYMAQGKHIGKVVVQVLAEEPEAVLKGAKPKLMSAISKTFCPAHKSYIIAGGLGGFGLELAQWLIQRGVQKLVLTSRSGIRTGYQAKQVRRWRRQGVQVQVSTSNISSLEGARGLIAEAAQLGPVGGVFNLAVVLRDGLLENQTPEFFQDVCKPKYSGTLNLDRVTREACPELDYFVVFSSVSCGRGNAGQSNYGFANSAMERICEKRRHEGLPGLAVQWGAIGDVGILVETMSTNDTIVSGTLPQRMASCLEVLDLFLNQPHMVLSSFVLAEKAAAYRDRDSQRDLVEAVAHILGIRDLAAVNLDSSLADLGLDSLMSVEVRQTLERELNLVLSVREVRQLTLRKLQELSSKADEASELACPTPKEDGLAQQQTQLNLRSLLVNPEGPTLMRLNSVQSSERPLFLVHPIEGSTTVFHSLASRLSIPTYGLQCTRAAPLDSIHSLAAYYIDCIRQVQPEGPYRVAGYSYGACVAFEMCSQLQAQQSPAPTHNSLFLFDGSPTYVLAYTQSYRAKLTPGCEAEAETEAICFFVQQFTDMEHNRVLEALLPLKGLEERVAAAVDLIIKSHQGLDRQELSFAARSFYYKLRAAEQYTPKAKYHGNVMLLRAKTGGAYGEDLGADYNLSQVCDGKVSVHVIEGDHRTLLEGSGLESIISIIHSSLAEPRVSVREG
UniProt P35916, whole entry, looked up: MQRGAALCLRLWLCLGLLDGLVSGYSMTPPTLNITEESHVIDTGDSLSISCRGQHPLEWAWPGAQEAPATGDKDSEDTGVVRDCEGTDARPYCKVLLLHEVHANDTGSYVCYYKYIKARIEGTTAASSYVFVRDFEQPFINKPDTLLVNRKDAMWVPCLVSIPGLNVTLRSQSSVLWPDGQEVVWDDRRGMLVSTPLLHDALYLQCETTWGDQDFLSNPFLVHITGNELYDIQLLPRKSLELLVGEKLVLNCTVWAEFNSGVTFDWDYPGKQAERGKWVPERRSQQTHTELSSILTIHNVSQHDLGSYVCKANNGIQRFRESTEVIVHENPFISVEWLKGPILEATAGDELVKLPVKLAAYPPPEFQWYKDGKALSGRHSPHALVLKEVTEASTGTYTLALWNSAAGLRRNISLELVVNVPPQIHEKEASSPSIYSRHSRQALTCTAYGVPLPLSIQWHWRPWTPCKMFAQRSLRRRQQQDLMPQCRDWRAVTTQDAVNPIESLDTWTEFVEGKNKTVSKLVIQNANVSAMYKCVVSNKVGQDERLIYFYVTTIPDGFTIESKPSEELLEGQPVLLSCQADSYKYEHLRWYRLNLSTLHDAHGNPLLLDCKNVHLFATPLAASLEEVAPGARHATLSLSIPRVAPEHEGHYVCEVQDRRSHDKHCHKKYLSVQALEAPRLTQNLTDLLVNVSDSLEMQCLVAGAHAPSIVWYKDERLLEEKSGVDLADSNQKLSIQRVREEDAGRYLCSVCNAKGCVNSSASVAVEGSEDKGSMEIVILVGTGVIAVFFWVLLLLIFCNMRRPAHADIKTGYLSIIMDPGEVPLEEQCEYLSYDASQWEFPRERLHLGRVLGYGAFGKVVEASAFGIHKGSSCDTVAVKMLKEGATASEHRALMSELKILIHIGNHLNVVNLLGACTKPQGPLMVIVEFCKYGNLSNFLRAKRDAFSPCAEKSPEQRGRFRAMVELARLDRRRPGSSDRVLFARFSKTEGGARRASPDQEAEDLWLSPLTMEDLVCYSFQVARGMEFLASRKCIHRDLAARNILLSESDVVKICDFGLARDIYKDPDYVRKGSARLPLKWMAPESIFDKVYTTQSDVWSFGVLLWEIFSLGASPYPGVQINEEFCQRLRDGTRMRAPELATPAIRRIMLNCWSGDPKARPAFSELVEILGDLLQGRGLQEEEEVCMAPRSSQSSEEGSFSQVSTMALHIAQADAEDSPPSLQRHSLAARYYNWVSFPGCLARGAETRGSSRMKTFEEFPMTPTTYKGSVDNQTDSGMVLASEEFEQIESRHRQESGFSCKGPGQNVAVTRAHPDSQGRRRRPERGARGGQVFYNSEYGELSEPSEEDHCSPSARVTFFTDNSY

Legend:
Assay in all cases: log2 fold change, soluble protein after heating vs DMSO (PISA); higher = thermal stabilisation; K562 lysate, 10 uM; active = over 0.2 and 3.5 SD of the protein, either way, in both replicates (recomputed)
[1] = compound: C1=CC=C(C=C1)[C@H](COC2=CC3=C(C=C2)NC(=O)N3)NC(=O)C4=CC=CN(C4=O)CC5=CC(=C(C=C5)F)F
Outline: (§1)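 The values are log-two fold changes in thermal stability compared with solvent controls and come from duplicates. They were obtained by TMTpro 16plex LC-MS/MS, with channel sums equalised, on the supernatant after 21,000xg for 90 min. That supernatant came from crude K562 extract at 1 mg/mL protein treated with 10 μM compound for 30 min, heated for 3 min across 48°C-58°C, pooled and brought to 0.5% NP-40 at 4°C.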

[2] = compound: CC1=C(SC2=C1C(=N[C@H](C3=NN=C(N32)C)CC(=O)N)C4=CC=C(C=C4)Cl)C
Outline: as §1

[3] = compound: CC1=C2C(=CC=C1)N=C(N(C2=O)C3=CC=CC=C3C)CN4C=NC5=C(N=CN=C54)N
Outline: as §1

[4] = compound: Cc1sc2c(c1C)C(c1ccc(Cl)cc1)=N[C@@H](CC(=O)OC(C)(C)C)c1nnc(C)n1-2
Outline: as §1

[5] = compound: c1ccc([C@@H]2C[C@H]2NC2CCNCC2)cc1
Outline: as §1

Measured: log2 fold change

FARP1 isoform 2 (UniProt Q9Y4F1)
inactive: [1] 0.093 | [2] 0.005 | [3] 0.016 | [4] -0.017

FERMT3 (UniProt Q86UX7)
inactive: [1] -0.012 | [2] 0.012 | [3] 0.009 | [4] -0.01 | [5] -0.016

FMR1 (UniProt Q06787)
inactive: [1] -0.04 | [2] 0.05 | [3] -0.004 | [4] -0.017 | [5] -0.067

FKBPL (UniProt Q9UIM3)
inactive: [1] 0.062 | [2] 0.007 | [3] 0.024 | [4] -0.047 | [5] 0.01

FAM98C (UniProt Q17RN3)
inactive: [1] 0.049 | [2] -0.129 | [3] -0.066 | [4] -0.25 | [5] 0.001

FMNL3 (UniProt Q8IVF7)
inactive: [1] -0.052 | [2] -0.061

FAT3 isoform 1 (UniProt Q8TDW7)
inactive: [1] -0.085 | [2] 0.109 | [3] -0.024 | [4] -0.041 | [5] 0.087

FIP1L1 (UniProt Q6UN15)
inactive: [1] -0.064 | [2] 0.015 | [3] 0.003 | [4] 0.014 | [5] -0.002

FKBP15 (UniProt Q5T1M5)
inactive: [1] 0.013 | [2] -0.001 | [3] 0.023 | [4] -0.022 | [5] -0.03

FCHO2 (UniProt Q0JRZ9)
inactive: [1] 0.033 | [2] 0.011 | [3] -0.062 | [4] 0.028 | [5] 0.057

FMC1 (UniProt Q96HJ9)
inactive: [1] -0.072 | [2] -0.112 | [3] -0.006 | [4] 0.065 | [5] 0.032

FGF2 (UniProt P09038)
inactive: [1] -0.039 | [2] -0.132 | [3] 0.015 | [4] 0.017 | [5] -0.021

FBXO5 (UniProt Q9UKT4)
inactive: [1] 0.012 | [2] -0.001 | [3] 0.014 | [4] -0.003 | [5] 0.073

FCHSD1 (UniProt Q86WN1)
inactive: [1] 0.011 | [2] 0.065 | [3] 0.007 | [4] 0.004 | [5] -0.083

FNBP1L (UniProt Q5T0N5)
inactive: [1] -0.082 | [2] -0.009 | [3] 0.012 | [4] -0.032 | [5] 0.029

FER (UniProt P16591)
inactive: [1] -0.024 | [2] 0.05 | [3] -0.057 | [4] -0.015 | [5] -0.093

FAM98B (UniProt Q52LJ0)
inactive: [1] 0.012 | [2] 0.004 | [3] 0.015 | [4] 0.042 | [5] 0.028

FIGNL1 (UniProt Q6PIW4)
inactive: [1] -0.033 | [2] 0.01 | [3] 0.028 | [4] 0.051 | [5] 0.085

FKBP7 (UniProt Q9Y680)
inactive: [1] 0.015 | [2] 0.026 | [3] -0.026 | [4] -0.012 | [5] -0.002

FN3KRP (UniProt Q9HA64)
inactive: [1] 0.047 | [2] 0.021 | [3] -0.08 | [4] -0.002 | [5] 0.007

FNTA (UniProt P49354)
inactive: [1] -0.059 | [2] 0.144 | [3] 0.016 | [4] 0.035 | [5] 0.002

FAU (UniProt E9PR30)
inactive: [1] 0.001 | [2] 0.06 | [3] -0.008 | [4] 0.018 | [5] 0.135

FBXO7 (UniProt Q9Y3I1)
inactive: [1] -0.023 | [2] -0.026 | [3] 0.049 | [4] 0.032 | [5] -0.066

FASN (UniProt P49327)
inactive: [1] -0.009 | [2] 0.027 | [3] -0.003 | [4] 0.024 | [5] 0.031

Reprinted from the entries so far (two entries):
FBXO7 (UniProt Q9Y3I1)
inactive: [1] -0.023 | [2] -0.026 | [3] 0.049 | [4] 0.032 | [5] -0.066

FASN (UniProt P49327)
inactive: [1] -0.009 | [2] 0.027 | [3] -0.003 | [4] 0.024 | [5] 0.031

Remaining list, next part.

FLT4 (UniProt P35916)
inactive: [1] 0.006 | [2] -0.04 | [3] -0.031 | [4] 0.098 | [5] -0.408
